The data set can be described thus: Propylene polymerization (PP) in small-scale autoclave reactors: yield, quench time, catalyst activity. The settings on record: for yield: polymer yield, not corrected for catalyst residue; for quench time: 0.015 umol catalyst complex. From the text:
Solutions of the pre-catalysts were made using toluene (ExxonMobil Chemical—anhydrous, stored under N2) (98%) or isohexane (ExxonMobil Chemical—polymerization grade, and purified as described below). Pre-catalyst solutions were typically 0.25 mmol/L.
Solvents, polymerization grade toluene and/or isohexanes were supplied by ExxonMobil Chemical Co. and are purified by passing through a series of columns: two 500 cc Oxyclear cylinders in series from Labclear (Oakland, Calif), followed by two 500 cc columns in series packed with dried […] (8-12 mesh; Aldrich Chemical Company), and two 500 cc columns in series packed with dried 5 Å mole sieves (8-12 mesh; Aldrich Chemical Company).
Polymerization grade propylene (C3) was used and further purified by passing it through a series of columns: 2250 cc Oxiclear cylinder from Labclear followed by a 2250 cc column packed with 3 Å mole sieves (8-12 mesh; Aldrich Chemical Company), then two 500 cc columns in series packed with 5 Å mole sieves (8-12 mesh; Aldrich Chemical Company), then a 500 cc column packed with Selexsorb CD (BASF), and finally a 500 cc column packed with Selexsorb COS (BASF).
Activation of the pre-catalysts was either by dimethylanilinium tetrakisperfluorophenylborate (Boulder Scientific or Albemarle Corp; Act ID=A) or is (hydrogenated tallow alkyl)methylammonium tetrakis(pentafluorophenyl)borate supplied as a 10 wt % solution in methylcyclohexane (Boulder Scientific; Act ID=B). Activators were typically used as a 0.25 mmol/L solution in toluene or isohexane.
Tri-n-octylaluminum (TnOAl or TNOA, Neat, AkzoNobel) was also used as a scavenger prior to introduction of the activator and pre-catalyst into the reactor. TNOA was typically used as a 5 mmol/L solution in toluene or isohexane.
Polymerizations were conducted in an inert atmosphere (N2) drybox using autoclaves equipped with an external heater for temperature control, glass inserts (internal volume of reactor=23.5 mL for C2 and C2/C8; 22.5 mL for C3 runs), septum inlets, regulated supply of nitrogen, ethylene and propylene, and equipped with disposable PEEK mechanical stirrers (800 RPM). The autoclaves were prepared by purging with dry nitrogen at 110° C. or 115° C. for 5 hours and then at 25° C. for 5 hours.
The reactor was prepared as described above, then heated to 40° C., and then purged with propylene gas at atmospheric pressure. Toluene or isohexanes, liquid propylene (1.0 mL) and scavenger (TNOA, 0.5 μmol) were added via syringe. The reactor was then brought to process temperature (70° C. or 100° C.) while stirring at 800 RPM. The activator solution, followed by the pre-catalyst solution, were injected via syringe to the reactor at process conditions. Reactor temperature was monitored and typically maintained within +/−1° C. Polymerizations were halted by addition of approximately 50 psi compressed dry air gas mixture to the autoclaves for approximately 30 seconds. The polymerizations were quenched based on a predetermined pressure loss (maximum quench value) or for a maximum of 30 minutes. The reactors were cooled and vented. The polymers were isolated after the solvent was removed in-vacuo. The actual quench time (s) is reported as quench time (s). Yields reported include total weight of polymer and residual catalyst. Catalyst activity is reported as grams of polymer per mmol transition metal compound per hour of reaction time (g/mmol·hr).
Polymerization results are collected in Tables 2 below. “Ex #” stands for example number. Example numbers starting with a “C” are comparative examples. “Cat ID” identifies the pre-catalyst used in the experiment. Corresponding numbers identifying the pre-catalyst (also referred to as pre-catalyst, catalyst, complex or compound) are located in the synthetic experimental section. T(° C.) is the polymerization temperature which was typically maintained within +/−1° C. “Yield” is polymer yield, and is not corrected for catalyst residue. […]

Where [1] appears, read: activator A, T 70° C., propylene homopolymerization.
Setting [2] is: activator A, T 100° C., propylene homopolymerization.
[3] abbreviates: activator A, T 70 ° C., 1.0 mL propylene.

“And” between values parts separate entries of the source, which are not always exact repeats. Identical values can stand only once.

As for `Cc1cc2c(c(C34CC5CC(CC(C5)C3)C4)c1)[O][Zr-]1([CH3])([CH3])[O]c3c(cc(C)cc3C34CC5CC(CC(C5)C3)C4)-c3ccccc3-c3cccc([n+]31)-c1ccccc1-2` [Complex 1], the yield by setting is: (activator A, T 70° C.) 0.3543 g and 0.4127 g and 0.4037 g; (activator A, T 100° C.) 0.2621 g and 0.3151 g and 0.2204 g. For the same compound, the quench time under setting [1] was 15 s and 13 s and 14 s; the quench time under setting [2] was 16 s and 17 s and 20 s.

Take `Cc1cc2[n+]3c(c1)-c1ccccc1-c1cc(C(C)(C)C)cc(C45CC6CC(CC(C6)C4)C5)c1[O][Zr-]3([CH3])([CH3])[O]c1c(cc(C(C)(C)C)cc1C13CC4CC(CC(C4)C1)C3)-c1ccccc1-2` [Complex 3]: the quench time is, setting by setting: under setting [3], 50 s and 36 s; (activator B, T 70 ° C., 1.0 mL propylene) 75 s and 77 s. Also, the yield was 0.3382 g and 0.3518 g (activator A, T 70° C.); 0.1677 g and 0.28 g and 0.1897 g (activator A, T 100° C.); 0.322 g and 0.3359 g and 0.3318 g (activator B, T 70° C.); 0.1794 g and 0.2302 g and 0.2075 g (activator B, T 100° C.).

`Cc1cc2c(c(C34CC5CC(C)(CC(C)(C5)C3)C4)c1)[O][Hf-]1([CH3])([CH3])[O]c3c(cc(C)cc3C34CC5CC(C)(CC(C)(C5)C3)C4)-c3ccccc3-c3cc(N4CCCC4)cc([n+]31)-c1ccccc1-2` [Complex 30]: the yield was 0.0533 g and 0.0513 g and 0.0640 g (activator A, T 70° C.); 0.0334 g and 0.0503 g and 0.0584 g (activator A, T 100° C.). Further, the quench time by setting is: under setting [1], 1801 s and 1800 s; under setting [2], 1800 s and 1613 s.

On to `CC(C)(C)c1cc2c(c(C34CC5CC(CC(C5)C3)C4)c1)[O][Zr-]1([CH3])([CH3])[O]c3c(cc(C(C)(C)C)cc3C34CC5CC(CC(C5)C3)C4)-c3ccccc3-c3cccc([n+]31)-c1ccccc1-2` [Complex 2], for which the yield is 0.3777 g and 0.431 g and 0.4143 g (activator A, T 70° C.); 0.2842 g and 0.3363 g and 0.2458 g (activator A, T 100° C.); 0.3535 g and 0.3501 g and 0.2818 g (activator B, T 70° C.); 0.2345 g and 0.2459 g and 0.2874 g (activator B, T 100° C.). The quench time (activator B, T 100° C., propylene homopolymerization) was 24 s and 22 s and 31 s.

In the case of `Cc1cc2[n+]3c(c1)-c1ccccc1-c1cc(C(C)(C)C)cc(C45CC6CC(CC(C6)C4)C5)c1[O][Zr-]3([CH3])([CH3])[O]c1c(cc(C(C)(C)C)cc1C13CC4CC(CC(C4)C1)C3)-c1ccccc1-2` [compound 3], the quench time under setting [3] is recorded as 70 s. For the same compound, the yield (activator A, T 70° C.) was found to be 0.3651 g.

(Values after patent publication US20250277066A1, “Substituted Pyridine-2,6-Bis(Phenylenephenolate) Complexes with Enhanced Solubility that are Useful as Catalyst Components for Olefin Polymerization” (ExxonMobil Chemical Patents Inc., priority 2022, published 2025).)
